Results of single-concentration screens

The chains behind the UniProt entries cited, without tags or fusion partners. Residues count along the entry.
UniProt P9WNZ1, whole entry: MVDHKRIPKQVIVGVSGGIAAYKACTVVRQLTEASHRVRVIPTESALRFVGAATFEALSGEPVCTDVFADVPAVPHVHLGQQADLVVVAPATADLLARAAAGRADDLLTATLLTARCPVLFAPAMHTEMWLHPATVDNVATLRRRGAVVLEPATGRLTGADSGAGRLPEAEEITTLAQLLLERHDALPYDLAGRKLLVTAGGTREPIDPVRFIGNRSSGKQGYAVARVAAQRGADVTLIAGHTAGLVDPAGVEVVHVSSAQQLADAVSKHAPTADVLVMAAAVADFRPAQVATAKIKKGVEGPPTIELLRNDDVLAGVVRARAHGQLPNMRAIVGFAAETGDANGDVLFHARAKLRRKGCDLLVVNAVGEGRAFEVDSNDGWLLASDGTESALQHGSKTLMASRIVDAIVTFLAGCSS
UniProt P9WFT3, whole entry: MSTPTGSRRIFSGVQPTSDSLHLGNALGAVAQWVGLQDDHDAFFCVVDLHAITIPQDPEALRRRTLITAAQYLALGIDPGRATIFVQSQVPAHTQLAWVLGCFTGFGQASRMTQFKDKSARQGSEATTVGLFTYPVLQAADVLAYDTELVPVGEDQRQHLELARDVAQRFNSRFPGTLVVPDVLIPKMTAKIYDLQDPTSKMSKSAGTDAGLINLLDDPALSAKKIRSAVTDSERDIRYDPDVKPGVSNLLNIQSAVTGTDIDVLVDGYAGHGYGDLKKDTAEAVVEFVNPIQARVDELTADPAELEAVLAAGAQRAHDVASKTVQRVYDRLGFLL
UniProt A4I591, 1-473: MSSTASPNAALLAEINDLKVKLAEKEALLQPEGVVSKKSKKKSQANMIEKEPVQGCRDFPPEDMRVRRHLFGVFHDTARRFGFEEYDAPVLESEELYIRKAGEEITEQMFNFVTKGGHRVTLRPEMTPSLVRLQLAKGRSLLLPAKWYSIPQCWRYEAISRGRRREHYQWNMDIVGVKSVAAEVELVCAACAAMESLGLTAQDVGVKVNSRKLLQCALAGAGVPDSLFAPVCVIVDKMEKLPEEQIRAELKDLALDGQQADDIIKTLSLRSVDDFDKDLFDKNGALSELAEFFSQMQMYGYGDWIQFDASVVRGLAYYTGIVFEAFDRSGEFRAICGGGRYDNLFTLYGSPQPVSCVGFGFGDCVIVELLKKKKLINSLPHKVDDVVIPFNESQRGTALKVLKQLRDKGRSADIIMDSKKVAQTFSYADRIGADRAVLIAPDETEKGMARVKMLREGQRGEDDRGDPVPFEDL

The values are deposited in ChEMBL (CHEMBL3988442, “University of Dundee, Small-Polar-MMV Screening Library” (2021)).

The filed quantity is “Percent Effect” (%). The record does not define 0% and 100%; most values in the screen are far below 50% and negative numbers occur (in some assays of this library far below -100). The compounds are a random part of those screened.

A: 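Coenzyme A biosynthesis protein CoaBC, Mycobacterium tuberculosis (UniProt P9WNZ1). Enzyme assay of CoaBC with a phosphate dye (Biomol Green) read at 650 nm. Compounds at 30 µM. Direction is inferred from only a few compounds that gave an IC50; most scored high, so higher reads as stronger inhibition. Most strong results did not repeat in a second test. Size under these conditions: about 67,000 compounds, about 40 of them at 50% or above in at least one test.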
B: 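Assay of Toxoplasma gondii numbers, read through their beta-galactosidase reporter with a colour substrate. Concentration: 10 µM. Higher reads as fewer parasites (inferred from which compounds were picked for retests). About 67,000 compounds were tested under these conditions; 0.38% (about 260) showed 50% or more at least once.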
C: 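Cell assay of Leishmania donovani living inside macrophages; the read-out is not stated. Concentration: 30 µM. The record gives no direction; compounds that gave an IC50 in retests scored well above the rest, so higher reads as stronger inhibition. Of about 69,000 compounds tested this way, about 1,000 (1.5%) reached 50% or more in at least one test.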
D: 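Tryptophan-tRNA ligase, Mycobacterium tuberculosis (UniProt P9WFT3). Enzyme assay of tryptophanyl-tRNA synthetase; the read-out is not stated. Concentration: 10 µM. Higher most likely means stronger inhibition; the record gives no direction and few retests gave an IC50. Size under these conditions: about 65,000 compounds, about 64 of them at 50% or above in at least one test.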
E: 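Histidine-tRNA ligase, Leishmania infantum (UniProt A4I591). Enzyme assay of histidyl-tRNA synthetase; the read-out is not stated. Compounds at 30 µM. The record gives no direction; compounds that gave an IC50 in retests scored well above the rest, so higher reads as stronger inhibition. The assay is labelled LdHisRS but filed under L. infantum. About 69,000 compounds were tested under these conditions; 0.6% (about 410) showed 50% or more at least once.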

For O=C(c1ccnnc1)N1C[C@@H]2C[C@@H](c3nc(C4CC4)cs3)O[C@@H]2C1 the result was A: 3.716%; D: 2.415%; E: 24.47%.
For CCCN1Cc2nc(N3CCCC3)ncc2C1=O the result was A: 0%; B: -11.9%; C: -12.95%; D: 3.31%; E: 25.93%.
For COCC(=O)N1CCN(C(C)C(=O)NC(C)C)CC1 (centres undefined) the result was A: 3.226%; B: 1.546%; C: 1.995%; D: 12.34%; E: 9.211%.
For Cc1ccc(CS(=O)(=O)N2CC[C@H]3[C@H]2CCN3C)cc1 the result was A: 9.677%; D: 0.7401%; E: 11.43%.
For COc1ccc2c(c1)C(=O)NC1(CC2)CCN(Cc2cccnc2)C1 (centres undefined) the result was A: 1.314%; B: 4.112%; C: 27.64%; D: -2.211%; E: 13.04%.
For CCOCC1CN(Cc2cccnc2OC)Cc2cnn(C)c21 (centres undefined) the result was A: -6.947%; D: 1.514%; E: 20.35%.
For CN(CC(=O)Nc1cc(-n2nnnc2C2CC2)ccc1F)C1CCC1 the result was A: 0.3226%; B: -3.924%; C: 13.42%; D: -1.371%; E: 9.211%.
For O=C(C1CCCC1)N1CCO[C@H]2[C@H](OCC3CCOCC3)CC[C@@H]21 the result was A: 6.015%; D: -0.2766%; E: -10.26%.
For COc1ccc2c(ccn2CC(=O)NC[C@@H]2CCCN3CCCC[C@H]23)c1 the result was A: -4.237%; D: 6.532%; E: 20.65%.
For CCc1nc(CN(C(C)=O)C2CCN(CCc3ccncc3)C2)no1 (centres undefined) the result was A: 4.987%; B: -0.9466%; C: 12.72%; D: 12.84%; E: -20.34%.
For Nc1cc(C(=O)NCC2CCN(Cc3ccncc3F)C2)ccn1 (centres undefined) the result was A: 6.585%; B: 8.583%; C: 14.08%; D: 0.7524%; E: 12.8%.
For O=S(=O)(C1CC1)N1CCC2(CC1)COC(COc1cccnc1)C2 (centres undefined) the result was A: 10.39%; B: 9.546%; C: 9.305%; D: 1.984%; E: 5.263%.
For O=C(NC1CCNCC1)C1(N2CCCCC2)Cc2ccccc2C1 the result was A: -7.407%; B: -1.906%; C: 40.23%; D: 2.968%; E: 9.574%.
For COCCS(=O)(=O)Nc1cc(Cl)ccn1 the result was B: -1.51%; C: 17.2%; D: 0.9082%; E: 18.31%.
For CS(=O)(=O)c1cncnc1C1CCCNC1 (centres undefined) the result was A: 3.253%; E: 20%.
For COc1cc(C2(C(=O)N3CCN(CC(C)(C)O)CC3)CC2)ccc1C the result was A: 6.818%; B: -32.22%; C: 8.838%; D: -2.082%; E: 0%.
For CC(=O)N(Cc1noc(C)n1)C1CCN(Cc2ncc(C(C)C)o2)C1 (centres undefined) the result was A: 1.567%; B: -6.244%; C: -44.65%; D: 25.83%; E: 13.27%.
For CCCS(=O)(=O)NC(=O)c1ccc(Br)o1 the result was A: -2.784%; B: 12.95%; C: 14.07%; D: -5.61%; E: 8.621%.
For CN(C)CC1(O)CCN(C(=O)Cc2ccc3c(c2)CCC3)C1 (centres undefined) the result was A: -2.055%; B: -6.792%; C: 13.67%; D: -8.171%; E: 10.74%.
For COC(=O)N1CCC(Nc2cccc(F)c2C#N)CC1 the result was A: 8.026%; B: -8.978%; C: 24.44%; D: 3.374%; E: 15.62%.
For O=C(c1ccnc(N2CCOC(C(F)(F)F)C2)c1)N1CCOCC1 (centres undefined) the result was A: -0.9639%; B: -21.39%; C: -2.959%; D: 9.126%; E: 12.09%.
For CC(=O)N1CCc2nc3sc(C(N)=O)c(N)c3c(C(F)(F)F)c2C1 the result was A: 1.882%; B: 11.73%; C: 18.55%; D: 0.8675%; E: 8.475%.
For CCc1cc(NCCN2CCNC2=O)n2nc(C)c(C)c2n1 the result was A: 6.311%; B: -11.12%; C: 3.517%; D: -4.392%; E: 16.87%.
For CN1CCN(C(=O)CCn2ncc3ccccc32)CC(C(N)=O)C1 (centres undefined) the result was A: -3.39%; B: 3.576%; C: -1.3%; D: 0.5875%; E: 9.79%.
For CC1(c2ccccc2)CCC(=O)N(CCCN2CCOCC2)C1 (centres undefined) the result was A: 1.373%; B: -31.18%; C: 13.79%; D: -1.251%; E: 18.18%.
For CNC(=O)CN1CC[C@H]2CN(C(=O)c3cccn3C)C[C@H]2C1 the result was A: -13.33%; D: -5.717%; E: 2.778%.
For COCCCN(Cc1ccncc1)c1cc(C)ncn1 the result was A: -0.3241%; B: 1.357%; C: 10.16%; D: 1.687%; E: 15.87%.
For CCCc1nc(CN2CCc3c(ncn3C3CC3)C2)cs1 the result was A: 4.54%; B: 6.597%; C: 31.49%; D: 16.68%; E: 19.23%.
For Cc1cnn(CC2CN(c3ncnc4ccccc34)CCO2)c1 (centres undefined) the result was A: 5.141%; C: 53.49%; D: -1.967%; E: 3.371%.

Once more, the final 2:

CCCc1nc(CN2CCc3c(ncn3C3CC3)C2)cs1 gave A: 4.54%; B: 6.597%; C: 31.49%; D: 16.68%; E: 19.23%.
Cc1cnn(CC2CN(c3ncnc4ccccc34)CCO2)c1 (centres undefined) gave A: 5.141%; C: 53.49%; D: -1.967%; E: 3.371%.